The values that follow come from PubChem BioAssay AID248 (DTP/NCI, 2004).

The test has as its system L1210 leukemia ip in BDF1 mice, survival T/C. The test is described as follows: NCI In Vivo Anticancer Drug Screen. Data for tumor model L1210 Leukemia (intraperitoneal) in B6D2F1 (BDF1) mice. The following applies: T/C endpoint: mean survival time, higher T/C = longer survival.
Setting [1] is: dose: 50.0 mg/kg/injection, schedule: Q01DX009 (ip), vehicle: saline with Tween-80.
Where [2] appears, read: dose: 32.0 mg/kg/injection, schedule: Q01DX015 (ip), vehicle: carboxymethylcellulose (CMC).

The structures appear in SMILES notation. The list is a part of this screen's results and no random one: it is rich in T/C values a quarter to a half above the control, in often repeated tests (any T/C) and in doses without a T/C. Further doses and runs are listed elsewhere. T/C is the treated group as % of the vehicle group. Some doses have a count of surviving animals in place of a T/C: the source files T/C as zero there, which appears to mark a toxic dose or a test without result, not a measured value. Some doses without a T/C left all or most animals alive at the check, yet need not have been tolerated: the source hardly ever lists a survival T/C far under the control, and the zero likely stands for such cases as well. Counts of survivors are from the toxicity check (mostly the fifth day) where no day follows; animals may have died later. Schedule codes are those of the source, read here as Q, the interval in days (D) or hours (H), X, the number of doses. Some molecules as drawn cover several salts, stereoisomers or complexes of the source; a dose is that of the sample tested. For survival time, the PubChem record calls one and a half times the control and up active, and a quarter to a half above the control has no call in these data; cut-offs in other NCI protocols can differ.

For the molecule `CSC1=[N+](C)CCS1`, the survivor count is, setting by setting: (dose: 300.0 mg/kg/injection, schedule: Q01DX001 (ip), vehicle: saline) 0 of 6; (dose: 300.0 mg/kg/injection, schedule: Q04DX003 (ip), vehicle: saline with Tween-80) 0 of 6; (dose: 350.0 mg/kg/injection, schedule: Q01DX009 (ip), vehicle: saline) 0 of 6.

For the molecule `O=C(Nc1ccc2c(c1)OCO2)O/N=C\c1cccnc1`, under setting [1], the survivor count is given as 6 of 6.

`O=C1Cc2ccccc2CNN1`: for the setting “dose: 200.0 mg/kg/injection, schedule: Q01DX001 (ip), vehicle: other”, the survivor count is 6 of 6.

For the molecule `CCOC(=O)Nc1cc2c(c(N)n1)N=C(CN(C)c1ccc(Cl)cc1)CN2`, the T/C is 126 % of control (dose: 44.0 mg/kg/injection, schedule: Q01DX001 (ip), vehicle: Klucel (hydroxypropylcellulose) (HPC)) and 146 % of control (dose: 66.0 mg/kg/injection, schedule: Q01DX001 (ip), vehicle: Klucel (hydroxypropylcellulose) (HPC)). Moreover, the survivor count is, setting by setting: (dose: 200.0 mg/kg/injection, schedule: Q01DX001 (ip), vehicle: Klucel (hydroxypropylcellulose) (HPC)) 2 of 3; (dose: 400.0 mg/kg/injection, schedule: Q01DX001 (ip), vehicle: Klucel (hydroxypropylcellulose) (HPC)) 0 of 3.

`NNC(=O)OCCO`: the survivor count is, setting by setting: (dose: 12.5 mg/kg/injection, schedule: Q01DX009 (ip), vehicle: saline) 0 of 6; (dose: 100.0 mg/kg/injection, schedule: Q01DX009 (ip), vehicle: saline) 6 of 6; (dose: 200.0 mg/kg/injection, schedule: Q01DX009 (ip), vehicle: saline) 1 of 6; (dose: 400.0 mg/kg/injection, schedule: Q01DX009 (ip), vehicle: saline) 0 of 6.

For the molecule `Cc1cc(CC(Cl)(C(F)(F)F)C(F)(F)F)cc(CC(Cl)(C(F)(F)F)C(F)(F)F)n1`, under setting [1], the survivor count is reported as 1 of 6.

Regarding `CC(NC(C)c1ccccc1)c1ccccc1` (configuration not stated), the survivor count by setting is: (dose: 200.0 mg/kg/injection, schedule: Q01DX009 (ip), vehicle: Klucel (hydroxypropylcellulose) (HPC)) 3 of 6; (dose: 400.0 mg/kg/injection, schedule: Q04DX003 (ip), vehicle: Klucel (hydroxypropylcellulose) (HPC)) 0 of 6.

For `CC(=O)CC(=O)Nc1cccc(Cl)c1`, the survivor count is, setting by setting: (dose: 60.0 mg/kg/injection, schedule: Q01DX001 (ip), vehicle: carboxymethylcellulose (CMC)) 0 of 6; (dose: 75.0 mg/kg/injection, schedule: Q01DX001 (ip), vehicle: carboxymethylcellulose (CMC)) 0 of 6; (dose: 150.0 mg/kg/injection, schedule: Q01DX001 (ip), vehicle: carboxymethylcellulose (CMC)) 0 of 6; (dose: 300.0 mg/kg/injection, schedule: Q01DX001 (ip), vehicle: carboxymethylcellulose (CMC)) 0 of 6.

As to `COC(=O)C(C)NC(=O)C(C)NC(=O)c1cnc2ccccc2n1` (configuration not stated), for the setting “dose: 400.0 mg/kg/injection, schedule: Q01DX001 (ip), vehicle: carboxymethylcellulose (CMC)”, the survivor count is recorded as 3 of 6.

In the case of `Cc1c2ccccc2cc2cc[n+]3ccccc3c12`, the T/C under setting [2] is 141 % of control. Besides, the survivor count is given as 2 of 6 under setting [2]; 0 of 6 (dose: 64.0 mg/kg/injection, schedule: Q01DX015 (ip), vehicle: carboxymethylcellulose (CMC)); 1 of 4 (dose: 80.0 mg/kg/injection, schedule: Q01DX001 (ip), vehicle: carboxymethylcellulose (CMC)); 3 of 6 (dose: 80.0 mg/kg/injection, schedule: Q04DX003 (ip), vehicle: Klucel (hydroxypropylcellulose) (HPC)); 0 of 6 (dose: 128.0 mg/kg/injection, schedule: Q01DX015 (ip), vehicle: carboxymethylcellulose (CMC)).

As for `OC(c1ccc(Cl)cc1)(c1ccc(Cl)cc1)C(F)(F)F`, the survivor count (dose: 400.0 mg/kg/injection, schedule: Q01DX009 (sc), vehicle: olive oil, sesame oil, peanut oil) is on record as 6 of 6.

For `CC(C)C(CN)(CCCN1CCOCC1)c1cccc2ccccc12` (configuration not stated), where the note is “dose: 400.0 mg/kg/injection, schedule: Q01DX009 (ip), vehicle: saline with Tween-80”, the survivor count was 1 of 6.

Consider `[Br][Hg][CH2]COC[CH2][Hg][Br]`, for which the survivor count (dose: 25.0 mg/kg/injection, schedule: Q01DX009 (ip), vehicle: Klucel (hydroxypropylcellulose) (HPC)) was 0 of 6; the survivor count (dose: 25.0 mg/kg/injection, schedule: Q04DX002 (ip), vehicle: Klucel (hydroxypropylcellulose) (HPC)) is reported as 1 of 3; the survivor count (dose: 35.0 mg/kg/injection, schedule: Q01DX009 (ip), vehicle: Klucel (hydroxypropylcellulose) (HPC)) was 3 of 6; the survivor count (dose: 50.0 mg/kg/injection, schedule: Q04DX002 (ip), vehicle: Klucel (hydroxypropylcellulose) (HPC)) is 0 of 3; the survivor count (dose: 55.0 mg/kg/injection, schedule: Q01DX009 (ip), vehicle: Klucel (hydroxypropylcellulose) (HPC)) is 0 of 6; the survivor count (dose: 80.0 mg/kg/injection, schedule: Q01DX009 (ip), vehicle: Klucel (hydroxypropylcellulose) (HPC)) is 0 of 6. For the same molecule, the survivor count is, setting by setting: (dose: 100.0 mg/kg/injection, schedule: Q04DX002 (ip), vehicle: Klucel (hydroxypropylcellulose) (HPC)) 0 of 3; (dose: 200.0 mg/kg/injection, schedule: Q04DX002 (ip), vehicle: Klucel (hydroxypropylcellulose) (HPC)) 0 of 3; (dose: 400.0 mg/kg/injection, schedule: Q04DX002 (ip), vehicle: Klucel (hydroxypropylcellulose) (HPC)) 0 of 3.

Regarding `CC(C)C(C=NCC(CCN(C)C)(c1ccc2ccccc2c1)C(C)C)(CCN(C)C)c1ccc2ccccc2c1` (configuration not stated), the survivor count is on record as 0 of 3 (dose: 50.0 mg/kg/injection, schedule: Q04DX002 (ip), vehicle: saline + alcohol); 0 of 3 (dose: 100.0 mg/kg/injection, schedule: Q04DX002 (ip), vehicle: saline + alcohol); 0 of 3 (dose: 200.0 mg/kg/injection, schedule: Q04DX002 (ip), vehicle: saline + alcohol); 0 of 3 (dose: 400.0 mg/kg/injection, schedule: Q04DX002 (ip), vehicle: saline + alcohol).

As to `C/C(=N/OC(=O)N(C)C)c1cc(Cl)ccc1Cl`, under “dose: 400.0 mg/kg/injection, schedule: Q01DX001 (ip), vehicle: saline”, the survivor count is 3 of 6.

As to `c1ccc2c(c1)ccc1cc3c4ccccc4c4ccccc4c3cc12`, the survivor count (dose: 100.0 mg/kg/injection, schedule: Q01DX001 (ip), vehicle: carboxymethylcellulose (CMC)) was 4 of 4.

Take `CCCCC(CCCC)NCCOC(=O)c1ccc(N)cc1`: the survivor count is reported as 0 of 6 (dose: 150.0 mg/kg/injection, schedule: Q01DX001 (ip), vehicle: other) and 0 of 6 (dose: 300.0 mg/kg/injection, schedule: Q01DX001 (ip), vehicle: other).

Consider `O=[N+]([O-])c1cc(Br)c(Br)cc1Br`, for which, under “dose: 400.0 mg/kg/injection, schedule: Q01DX009 (ip), vehicle: Klucel (hydroxypropylcellulose) (HPC)”, the survivor count is on record as 4 of 6.
